Data as given in PubChem BioAssay AID1259405 (NCATS, 2018).
Shown is a random part of about 50,000 deposited reagents. About 4,000 of all reagents (8%) count as active. 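Mouse siRNA library applied to hamster cells; one well for each siRNA.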 Reagents against one gene are numbered here.

- Purpose: 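Silenced genes that increase secreted GFP made by CHO cells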 (primary screen)
- System: Chinese hamster CHO-K1 ovary cells with stable secreted eGFP expression
- Knock-down reagent: single siRNA against mouse genes, 0.8 pmol siRNA per well (2 µl of 400 nM stock)
- Time to read-out: 3 days
- Detection: 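Per-well intracellular GFP measured by laser scanning cytometry, plus viability from ATP luminescence, each relative to plate median of non-targeting control wells, in %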
- Scale: GFP, % of control: higher = more GFP per well, higher productivity; viability (ATP), % of control: higher = more viable cells (more ATP)
- Rule for the call: 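a knock-down is called active if GFP reaches 120% or more of non-targeting control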

What did the screen give for Alox15 (arachidonate 15-lipoxygenase) #1?
GFP, % of control: 78.3; viability (ATP), % of control: 83.7; activity call: inactive

With Alox15 (arachidonate 15-lipoxygenase) #2, how do the results read?
GFP, % of control: 93.7; viability (ATP), % of control: 82.1; activity call: inactive

With Alox15 (arachidonate 15-lipoxygenase) #3, what was measured?
GFP, % of control: 69.6; viability (ATP), % of control: 37.5; activity call: inactive

What is on record for Vmn1r226 (vomeronasal 1 receptor 226) #1?
GFP, % of control: 60.3; viability (ATP), % of control: 47.1; activity call: inactive

What did the screen give for Vmn1r226 (vomeronasal 1 receptor 226) #2?
GFP, % of control: 57.2; viability (ATP), % of control: 73.1; activity call: inactive

For Vmn1r226 (vomeronasal 1 receptor 226) #3, how do the results read?
GFP, % of control: 79.1; viability (ATP), % of control: 57.8; activity call: inactive

What is on record for C2cd4c (C2 calcium-dependent domain containing 4C) #1?
GFP, % of control: 69.4; viability (ATP), % of control: 59.4; activity call: inactive

For C2cd4c (C2 calcium-dependent domain containing 4C) #2, what does the deposit list?
GFP, % of control: 91.1; viability (ATP), % of control: 45.7; activity call: inactive

How did the screen score C2cd4c (C2 calcium-dependent domain containing 4C) #3?
GFP, % of control: 87.7; viability (ATP), % of control: 80.9; activity call: inactive

For Samt2 (spermatogenesis associated multipass transmembrane protein 2) #1, how do the results read?
GFP, % of control: 38.6; viability (ATP), % of control: 67.8; activity call: inactive

With Samt2 (spermatogenesis associated multipass transmembrane protein 2) #2, what was measured?
GFP, % of control: 71.6; viability (ATP), % of control: 38.3; activity call: inactive

What did the screen give for Samt2 (spermatogenesis associated multipass transmembrane protein 2) #3?
GFP, % of control: 105; viability (ATP), % of control: 68.3; activity call: inactive

How did the screen score Gli1 (GLI-Kruppel family member GLI1) #1?
GFP, % of control: 111; viability (ATP), % of control: 75.3; activity call: inactive

What is on record for Gli1 (GLI-Kruppel family member GLI1) #2?
GFP, % of control: 111; viability (ATP), % of control: 84.1; activity call: inactive

An excerpt from the list above, as a working copy:
C2cd4c (C2 calcium-dependent domain containing 4C) #1 | GFP, % of control: 69.4; viability (ATP), % of control: 59.4; activity call: inactive
C2cd4c (C2 calcium-dependent domain containing 4C) #2 | GFP, % of control: 91.1; viability (ATP), % of control: 45.7; activity call: inactive
C2cd4c (C2 calcium-dependent domain containing 4C) #3 | GFP, % of control: 87.7; viability (ATP), % of control: 80.9; activity call: inactive
Samt2 (spermatogenesis associated multipass transmembrane protein 2) #1 | GFP, % of control: 38.6; viability (ATP), % of control: 67.8; activity call: inactive
Samt2 (spermatogenesis associated multipass transmembrane protein 2) #2 | GFP, % of control: 71.6; viability (ATP), % of control: 38.3; activity call: inactive

The listing continues:
What is on record for Arhgap5 (Rho GTPase activating protein 5) #1?
GFP, % of control: 119; viability (ATP), % of control: 94; activity call: inactive

How did the screen score Arhgap5 (Rho GTPase activating protein 5) #2?
GFP, % of control: 73.4; viability (ATP), % of control: 88.4; activity call: inactive

What is on record for Arhgap5 (Rho GTPase activating protein 5) #3?
GFP, % of control: 61.3; viability (ATP), % of control: 45.6; activity call: inactive

What is on record for Scara3 (scavenger receptor class A, member 3) #1?
GFP, % of control: 69.1; viability (ATP), % of control: 56.1; activity call: inactive

What is on record for Scara3 (scavenger receptor class A, member 3) #2?
GFP, % of control: 66.4; viability (ATP), % of control: 97.5; activity call: inactive

For Scara3 (scavenger receptor class A, member 3) #3, how do the results read?
GFP, % of control: 49.4; viability (ATP), % of control: 61.8; activity call: inactive

With Stmn2 (stathmin-like 2) #1, what does the deposit list?
GFP, % of control: 92.9; viability (ATP), % of control: 90; activity call: inactive

What is on record for Stmn2 (stathmin-like 2) #2?
GFP, % of control: 125; viability (ATP), % of control: 158; activity call: active

How did the screen score Stmn2 (stathmin-like 2) #3?
GFP, % of control: 129; viability (ATP), % of control: 107; activity call: active

For Tmx2 (thioredoxin-related transmembrane protein 2) #1, what was measured?
GFP, % of control: 61.1; viability (ATP), % of control: 64.1; activity call: inactive

With Tmx2 (thioredoxin-related transmembrane protein 2) #2, what was measured?
GFP, % of control: 91.6; viability (ATP), % of control: 96.6; activity call: inactive

How did the screen score Arpc1b (actin related protein 2/3 complex, subunit 1B) #1?
GFP, % of control: 34.5; viability (ATP), % of control: 43; activity call: inactive

For Arpc1b (actin related protein 2/3 complex, subunit 1B) #2, what was measured?
GFP, % of control: 75.7; viability (ATP), % of control: 67.5; activity call: inactive

What did the screen give for Arpc1b (actin related protein 2/3 complex, subunit 1B) #3?
GFP, % of control: 49; viability (ATP), % of control: 77.3; activity call: inactive
